Literature values as cited in US11186807B2, “Reducing acetate ester production in yeast” (VIB VZW, priority 2017, dated 2021).

Details: reported flavor threshold level; cited from earlier work

Row | SMILES | Threshold (ppm)
1 | CCOC(C)=O [Ethyl acetate] | 30 ppm
2 | CC(=O)OCCC(C)C [Isoamyl acetate] | 0.51 ppm
3 | CC(C)CCO [Isoamyl alcohol] | 70 ppm
4 | CC(=O)OCC(C)C [Isobutyl acetate] | 1.6 ppm
5 | CC(=O)OCCc1ccccc1 [Phenyl ethyl acetate] | 3.8 ppm
